Laboratory results: the supplement of paper PMC3545927
This is a selection; strong and weak results do not stand in their true shares.

Chains of the proteins cited; added tags and fusions are not shown.
furin, P09958, UniProt P09958, whole entry: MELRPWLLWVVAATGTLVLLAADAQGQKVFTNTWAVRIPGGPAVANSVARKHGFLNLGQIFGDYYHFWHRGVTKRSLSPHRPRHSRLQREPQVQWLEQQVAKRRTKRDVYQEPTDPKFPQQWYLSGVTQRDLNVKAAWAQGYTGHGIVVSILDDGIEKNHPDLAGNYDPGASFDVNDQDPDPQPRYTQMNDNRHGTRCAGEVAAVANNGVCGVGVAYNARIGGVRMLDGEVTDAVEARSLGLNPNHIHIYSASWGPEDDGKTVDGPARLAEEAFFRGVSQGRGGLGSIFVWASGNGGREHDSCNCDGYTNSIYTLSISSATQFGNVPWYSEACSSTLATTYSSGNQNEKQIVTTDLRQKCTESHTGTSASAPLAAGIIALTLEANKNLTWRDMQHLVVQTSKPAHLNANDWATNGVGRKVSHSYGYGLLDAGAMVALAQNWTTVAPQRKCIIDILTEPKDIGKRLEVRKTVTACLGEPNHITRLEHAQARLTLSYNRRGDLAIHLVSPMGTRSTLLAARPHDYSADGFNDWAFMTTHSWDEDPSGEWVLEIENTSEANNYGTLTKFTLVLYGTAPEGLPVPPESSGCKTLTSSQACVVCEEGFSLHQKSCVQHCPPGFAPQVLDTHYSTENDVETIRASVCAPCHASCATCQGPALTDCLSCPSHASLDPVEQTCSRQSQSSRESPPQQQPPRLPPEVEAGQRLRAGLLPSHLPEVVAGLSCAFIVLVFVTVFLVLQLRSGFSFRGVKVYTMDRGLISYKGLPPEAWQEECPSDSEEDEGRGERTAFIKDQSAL

Target: furin, P09958
Assay: furin cleavage Z-score vs untreated control; higher = more cleavage, active = 3.5 or more, inactive = 1 or less, 8 variable residues between constant flanks
How it was run: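 The cleavage Z-score is the log read count relative to furin-free reactions, lowess-adjusted and scaled by median absolute deviation. Counts came from sequencing DNA released from bead-bound 8-mer peptide–cDNA fusions after digestion with purified furin for 7.5, 15 or 30 min.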
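Note: purified furin at 1:10 enzyme:substrate in 50 mM HEPES pH 7.5.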

| Sequence | furin cleavage Z-score (7.5 min) | furin cleavage Z-score (15 min) | furin cleavage Z-score (30 min) |
| --- | --- | --- | --- |
| CALAARRRRSAGNASASA [FS-264] | active: 10.9 | active: 11 | active: 8.11 |
| CAEEERRRREAGNASASA [FS-155] | 1.73 | 1.87 | 2.22 |
| CARFRRKRRHAGNASASA [FS-854] | active: 9.74 | active: 9.95 | active: 7.32 |
| CASILRQRRCAGNASASA [FS-718] | 2.96 | 2.4 | 2.95 |
| CAKWLRKRRIAGNASASA [FS-455] | 1.96 | 3.03 | 1.34 |
| CARPRRRCSPAGNASASA [FS-3024] | 1.15 | 1.37 | 1.27 |
| CASASRGPRSAGNASASA [FS-1078] | active: 4.05 | active: 4.67 | active: 4.87 |
| CARRWRSLRPAGNASASA [FS-1924] | inactive: -0.388 | 2.12 | 2.35 |
| CARRKRKKHRAGNASASA [FS-1776] | 1.02 | 1.5 | 2.48 |
| CARVSRSSSAAGNASASA [FS-2109] | 2.76 | 2.22 | 2.59 |
| CALLRRAKRSAGNASASA [FS-1228] | 2.43 | 1.99 | 1.9 |
| CAYIHRIPRSAGNASASA [FS-1665] | 2.68 | 2.75 | 1.68 |
| CADRLRVRRSAGNASASA [FS-1315] | 1.98 | 1.87 | 1.5 |
| CAAKHRTKRSAGNASASA [FS-746] | active: 14.6 | active: 14.7 | active: 10.8 |
| CARKRRSTDFAGNASASA [FS-2217] | active: 9.58 | active: 11.2 | active: 9.06 |
| CARKNRSHIPAGNASASA [FS-1730] | inactive: 0.266 | inactive: -0.138 | inactive: -0.417 |
| CAEEIRVNRSAGNASASA [FS-229] | 2.33 | inactive: 0.724 | 1.69 |
| CAFTPCSGSWAGNASASA [HC1827] | inactive: -0.899 | inactive: -0.656 | inactive: -0.511 |
| CARPVRCVEAAGNASASA [FS-1914] | 2.19 | 3.43 | 3.29 |
| CALGSRPARGAGNASASA [FS-818] | 1.83 | 2.71 | 1.43 |
| CARPRRGIIFAGNASASA [FS-3021] | 1.06 | 1.16 | active: 5.75 |
| CANRQRVKRVAGNASASA [FS-1144] | 2.25 | 2.1 | 1.42 |
| CAPQRRAVEPAGNASASA [FS-2543] | 1.48 | 1.56 | 1.85 |
| CAGSHMKRRSAGNASASA [FS-659] | inactive: -0.564 | inactive: 0.785 | 1.98 |

Taken from the listing (two entries):

| Sequence | furin cleavage Z-score (7.5 min) | furin cleavage Z-score (15 min) | furin cleavage Z-score (30 min) |
| --- | --- | --- | --- |
| CAEEERRRREAGNASASA [FS-155] | 1.73 | 1.87 | 2.22 |
| CARFRRKRRHAGNASASA [FS-854] | active: 9.74 | active: 9.95 | active: 7.32 |
